Test results from patent US20230140798A1, “SYNTHETIC PEPTIDES DIRECTED AGAINST THE METABOTROPIC GLUTAMATE RECEPTOR 5” (Lactocore, Inc., priority 2020, published 2023).
Not every detail of the peptide structures is certain; ends, links or a residue may be inferred. Where a SMILES comes first, the peptide text is derived from it.

Key:
EGR2 mRNA = assay: Real-time PCR, frontal cortex: EGR2; type: in vivo, rats; settings: 1 mg/kg i.n., 2 h after treatment
Sprague-Dawley rats = assay: Elevated Plus Maze test (EPM), rats; type: in vivo
Wistar rats = assay: Elevated Plus Maze test in Acute Foot Shock (AFS) stress model; type: in vivo; settings: for proportion of animals that went to the open arms of the maze: after AFS; for time in open arms <=Median: obs. − exp. / time in open arms >Median: obs. − exp. / time in open arms <=Median: observed (animals) / time in open arms >Median: observed (animals): AFS; for time in open arms <=Median: observed (animals) / time in open arms >Median: observed (animals): overall median 0.00
Procedure: KEDV (SEQ ID NO: 4) and RAHE (SEQ ID NO: 3) (Lactocore Inc.) were administered intranasally (i.n), daily for 10 days at a dose of 1 mg/kg and 5 mg/kg. Peptides were prepared freshly each day in saline. The solution for i.n. administration of 5 mg/kg in a volume of 15 μl (single administration) contained 1.3 mg KEDV (SEQ ID NO: 4) or RAHE (SEQ ID NO: 3), and a solution for intranasal administration of 1 mg/kg in a volume of 10 μl (single administration) contained 0.26 mg KEDV (SEQ ID NO: 4) or RAHE (SEQ ID NO: 3).
The tetracyclic antidepressant Maprotiline (MAP, “Lyudiomil”), was used as a drug of comparison. Animals received a daily intraperitoneal injection (i.p) of MAP for ten days (M9651, Merck, in a dose of 4.5 mg/kg, dissolved in saline, 250 μl per administration).
Stimulation was performed automatically using a software randomizer.
EPM testing allows characterizing the behavior of rodents under the variable stress conditions, which makes it possible to assess the level of animal anxiety and anxiolytic effects of drugs. On the 6th day after the experimental exposure, the rats were tested one at a time for 5 min in the EPM installation, located at a height of 75 cm above the floor, and consisting of 2 open illuminated and 2 closed arms with exits. The time spent by the animal inside and outside the closed arms (in the open arms and in the center), the number of transitions between the arms, the number of stretch-attended postures were evaluated. Usually, animals tend to stay in the closed arms, anxiolytic treatment results in an increment of the time spent on the open arms of the maze (Pellow et al. (1985). Validation of open: closed arm entries in an elevated plus-maze as a measure of anxiety in the rat. J. Neurosci. Methods, 14(3), 149-167; Walf et al. (2007). The use of the elevated plus maze as an assay of anxiety-related behavior in rodents. Nat. Protoc., 2(2), 322-328).

zebrafish (Danio rerio) = assay: Overall behavioral effect in zebrafish (NT and LDB tests); type: in vivo
Procedure: The tested substances were injected into the zebrafish intraperitoneally using an insulin syringe (0.5 ml, 30 g) 10 minutes before the test (15 min before for ketamine only, according to the literature data). The saline solution (0.9% NaCl) was used as a solvent. Anesthesia and immobilization of the animals were achieved by placing them in water at a temperature of 10° C. Control group fish received intraperitoneal injections of an equivalent volume of solvent, also after going through a pre-cooling procedure.
The Novel Tank (NT) test was performed as previously described (Maximino et al. (2013). Behavioral and neurochemical changes in the zebrafish leopard strain. G2B. 12(5): 576-582). A video recording (background shooting) was started 20-30 seconds before the zebrafish were placed in the test aquarium. The experimental zebrafish was placed in the tank using a net. The recording was being conducted for 5 minutes. The test was carried out using EthoVision XT software package (Noldus, Wageningen, Netherlands). The software registered the distance covered by the animal, its speed, the number of visits to the three conventional zones of the aquarium: “bottom,” “center,” and […] (lower, middle, and upper thirds of the aquarium, respectively), the time spent in these zones, and the latency of a visit to the middle and to the surface of the aquarium.
The light/dark box (LDB) test was performed as previously described (Maximino et al. (2011). Pharmacological analysis of zebrafish (Danio rerio) scototaxis. Prog. Neuro-Psychopharmacol. Biol. Psychiatry. 35(2): 624-631). The zebrafish was placed in a light compartment of an LDB using a net, the camera was switched on simultaneously, and the behavior of the zebrafish was recorded for 5 minutes. The video was processed using RealTimer (OpenScience). During the processing of records, the residence time and the number of visits to the light and dark compartments of the test setup were recorded, as well as the latent period of visiting both compartments.

BALB/C mice = assay: Porsolt Forced Swim test (two-day modification), mice; type: in vivo; settings: 1 mg/kg i.p.
Procedure: After an adaptation period, the test substance was intraperitoneally injected into mice. Behavioral parameters were measured in 30 minutes after injection. No more than one test was performed per day. The tests were administered as follows: day 1—the Open field test, day 8—the Elevated plus maze test, days 15-16—the Porsolt Forced Swim (two-day modification) test.
As part of this modification, two tests were carried out within two days. The installation is a transparent cylinder, 30 cm high, 10 cm in diameter and filled with water (water temperature 21° C.-23° C.) to a mark at a height of 25 cm. On the first day, each animal was dropped into the cylinder for 10 minutes. Behavioral parameters were not recorded. The animals are dropped into the cylinder for ten minutes again on the second day. The duration of active (vigorous movements with all paws) and passive (weak strokes with hind legs) swimming, as well as immobility (immobilization) (Porsolt et al. (1977). Behavioral despair in mice: a primary screening test for antidepressants. Arch Int Pharmacodyn Ther, 229(2), 327-336) are recorded. After each test the mice are placed in a heated cage until dry. The behavior indicators in this test are processed using the Real Timer Program developed by NPK “OpenScience” LLC, Russia. The sequence of events and their duration were recorded as well as basic statistical data processing was conducted.

SMILES: CC(C)[C@H](NC(=O)[C@H](CC(=O)O)NC(=O)[C@H](CCC(=O)O)NC(=O)[C@@H](N)CCCCN)C(=O)O [KEDV] (H-KEDV-OH; N-terminus and C-terminus assumed)
- expression levels of EGR2 gene (EGR2 mRNA): did not affect expression levels
- anxiety index (AI) (Sprague-Dawley rats; 0.1 mg/kg i.n.): 72.8±1.96%
- open arms entries (Sprague-Dawley rats; 0.1 mg/kg i.n.): 7.2±0.44
- time spent in the open arms (Sprague-Dawley rats; 0.1 mg/kg i.n.): 66.8 ± 9.6 s
- total distance travelled (Sprague-Dawley rats; 0.1 mg/kg i.n.): 2505±104.2 cm
- total distance travelled (Sprague-Dawley rats; 0.3 mg/kg i.n.): 2247±127.8 cm
- open arms entries (Sprague-Dawley rats; 1 mg/kg i.n.): 6.6±1.06 cm
- total distance travelled (Sprague-Dawley rats; 1 mg/kg i.n.): 2209±111.2 cm
- proportion of animals that went to the open arms of the maze (Wistar rats; 1 mg/kg i.n. daily): 44%
- time in open arms <=Median: obs. − exp. (Wistar rats; 1 mg/kg): 0.14
- time in open arms >Median: obs. − exp. (Wistar rats; 1 mg/kg): −0.14
- time in open arms <=Median: observed (animals) (Wistar rats; 1 mg/kg): 5.00
- time in open arms >Median: observed (animals) (Wistar rats; 1 mg/kg): 4.00
- time in open arms <=Median: obs. − exp. (Wistar rats; 5 mg/kg): 1.14
- time in open arms >Median: obs. − exp. (Wistar rats; 5 mg/kg): −1.14
- time in open arms <=Median: observed (animals) (Wistar rats; 5 mg/kg): 6.00
- time in open arms >Median: observed (animals) (Wistar rats; 5 mg/kg): 3.00
- overall behavioral effect in Danio rerio (zebrafish (Danio rerio); 0.5 mg/kg i.p.): failed to produce any behavioral changes
- overall behavioral effect in Danio rerio (zebrafish (Danio rerio); 1 mg/kg i.p.): potent anxiolytic-like effects
- overall behavioral effect in Danio rerio (zebrafish (Danio rerio); 10 mg/kg i.p.): anxiogenic-like effect
- time spent active swimming (BALB/C mice): increased time spent active swimming

SMILES: C[C@H](NC(=O)[C@@H](N)CCCNC(=N)N)C(=O)N[C@@H](Cc1c[nH]cn1)C(=O)N[C@@H](CCC(=O)O)C(=O)O [RAHE] (H-RAHE-OH; N-terminus and C-terminus assumed)
- expression levels of EGR2 gene (EGR2 mRNA): did not affect expression levels
- total distance travelled (Sprague-Dawley rats; 0.1 mg/kg i.n.): 2146±170 cm
- proportion of animals that went to the open arms of the maze (Wistar rats; 1 mg/kg i.n. daily): 56%
- time in open arms <=Median: obs. − exp. (Wistar rats; 1 mg/kg): −0.86
- time in open arms >Median: obs. − exp. (Wistar rats; 1 mg/kg): 0.86
- time in open arms <=Median: observed (animals) (Wistar rats; 1 mg/kg): 4.00
- time in open arms >Median: observed (animals) (Wistar rats; 1 mg/kg): 5.00
- proportion of animals that went to the open arms of the maze (Wistar rats; 5 mg/kg i.n. daily): 44%
- time in open arms <=Median: obs. − exp. (Wistar rats; 5 mg/kg): 0.14
- time in open arms >Median: obs. − exp. (Wistar rats; 5 mg/kg): −0.14
- time in open arms <=Median: observed (animals) (Wistar rats; 5 mg/kg): 5.00
- time in open arms >Median: observed (animals) (Wistar rats; 5 mg/kg): 4.00
- overall behavioral effect in Danio rerio (zebrafish (Danio rerio); 0.5 mg/kg i.p.): did not affect the behavior
- overall behavioral effect in Danio rerio (zebrafish (Danio rerio); 1 mg/kg i.p.): prominent anxiolytic-like effects in NT but not LDB test
- overall behavioral effect in Danio rerio (zebrafish (Danio rerio); 10 mg/kg i.p.): produced sedation or anxiety
- passive swimming (BALB/C mice): 289 ± 19.6 s
- time spent immobile (BALB/C mice): 223.6 ± 16.1 s
